Test results: patent US5654178A, “Immunoassay for tetrachloroisophthalonitrile (chlorothalonil), its derivatives and breakdown products” (ISK Biosciences Corporation, priority 1995, dated 1997)

Assay: Recovery of TCPN from spiked tomato by polyclonal EIA

N#Cc1c(Cl)c(Cl)c(Cl)c(C#N)c1Cl [TCPN, tetrachloroisophthalonitrile]
% Recovery (spike level 0.10 ppm): 120% | Amount Recovered (spike level 0.10 ppm): 0.12 ppm | % Recovery (spike level 0.49 ppm): 104% | Amount Recovered (spike level 0.49 ppm): 0.51 ppm | % Recovery (spike level 0.98 ppm): 103% | Amount Recovered (spike level 0.98 ppm): 1.01 ppm | % Recovery (spike level 4.9 ppm): 115% | Amount Recovered (spike level 4.9 ppm): 5.6 ppm | % Recovery (spike level 9.7 ppm): 106% | Amount Recovered (spike level 9.7 ppm): 10.3 ppm | % Recovery (spike level 19.6 ppm): 121% | Amount Recovered (spike level 19.6 ppm): 23.6 ppm
